{"source": "the supplement of paper PMC8728848", "binders": {"B1": {"name": "PX9916F-bfa-443-24-443 (Bacteroides fragilis) (protein)", "chain": "DIRPVGSVIPQTAEEYRALLARAYLNVPNDRGLACLRSDEMLVNDNEYDRNSYGDIERWNDVSPFPGTSQFTWSNFYNVLFIANQVIESQKEITEGTPEVVNQLVGEAHLLRAYLHFVLVNLHGQPYTKSGALNSKSIPLKLDTDLEKTLGRNTVEEVYTSILSDIEHARELINKEKWETVFSYRFNVLSVDALQSRVSLYMGAWPKCLESAEAVLAKKSVLVDMNETPLALPNHFESVESITALEQVMGSSVNNAVWVPATFLALYQEGDKRLAAYFAAPDENGNRKSSKGGKREFSCTFRVGELYLNAAEAAANMDKLPHARMRLLELMRKRYTPEAYDKKENAVNVMDKNALISEILNERARELAFEGHRWFDLRRTTRPRMVKVLQGKTYILEQDDPRYTIPIPRDAIAANPGLAN"}}, "assay_in_all_cases": "glycan array binding signal (z-score within array); higher = stronger binding", "settings_in_all_cases": "glycan notation: IUPAC condensed, linker removed", "key": {"[1]": {"biological_target": "Neu5Ac(a2-3)Gal(b1-3)GlcNAc(b1-2)Man(a1-3)[GlcNAc(b1-4)][Neu5Ac(a2-3)Gal(b1-3)GlcNAc(b1-2)Man(a1-6)]Man(b1-4)GlcNAc(b1-4)GlcNAc", "how_it_was_run": "(§1)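 Columns mapping to the same glycan were averaged after glycan names were converted to IUPAC-condensed notation. The data come from 3228 arrays in the Consortium for Functional Glycomics database, limited to those with an available protein sequence. Binding is reported as a within-array Z-score averaged across arrays of one protein sequence and across linkers.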"}, "[2]": {"biological_target": "Neu5Ac(a2-3)Gal(b1-3)GlcNAc(b1-2)Man(a1-3)[Neu5Ac(a2-3)Gal(b1-3)GlcNAc(b1-2)Man(a1-6)]Man(b1-4)GlcNAc(b1-4)GlcNAc", "how_it_was_run": "as §1"}, "[3]": {"biological_target": "Neu5Ac(a2-3)Gal(b1-3)GlcNAc(b1-3)Gal(b1-3)GlcNAc", "how_it_was_run": "as §1"}, "[4]": {"biological_target": "Neu5Ac(a2-3)Gal(b1-3)GlcNAc(b1-3)Gal(b1-4)GlcNAc", "how_it_was_run": "as §1"}, "[5]": {"biological_target": "Neu5Ac(a2-3)Gal(b1-3)GlcNAc(b1-3)GalNAc", "how_it_was_run": "as §1"}, "[6]": {"biological_target": "Neu5Ac(a2-3)Gal(b1-3)GlcNAc(b1-4)Gal(b1-4)Glc", "how_it_was_run": "as §1"}, "[7]": {"biological_target": "Neu5Ac(a2-3)Gal(b1-3)GlcNAc(b1-6)GalNAc", "how_it_was_run": "as §1"}, "[8]": {"biological_target": "Neu5Ac(a2-3)Gal(b1-3)GlcNAc6S", "how_it_was_run": "as §1"}, "[9]": {"biological_target": "Neu5Ac(a2-3)Gal(b1-3)[Fuc(a1-4)]GlcNAc", "how_it_was_run": "as §1"}, "[10]": {"biological_target": "Neu5Ac(a2-3)Gal(b1-3)[Fuc(a1-4)]GlcNAc(b1-3)Gal(b1-3)[Fuc(a1-4)]GlcNAc", "how_it_was_run": "as §1"}, "[11]": {"biological_target": "Neu5Ac(a2-3)Gal(b1-3)[Fuc(a1-4)]GlcNAc(b1-3)Gal(b1-4)[Fuc(a1-3)]GlcNAc", "how_it_was_run": "as §1"}, "[12]": {"biological_target": "Neu5Ac(a2-3)Gal(b1-3)[GlcNAc(b1-6)]GalNAc", "how_it_was_run": "as §1"}, "[13]": {"biological_target": "Neu5Ac(a2-3)Gal(b1-3)[Neu5Ac(a2-6)]GalNAc", "how_it_was_run": "as §1"}, "[14]": {"biological_target": "Neu5Ac(a2-3)Gal(b1-3)[Neu5Ac(a2-6)]GlcNAc(b1-3)[Fuc(a1-3)[Gal(b1-4)]GlcNAc(b1-6)]Gal(b1-4)Glc", "how_it_was_run": "as §1"}, "[15]": {"biological_target": "Neu5Ac(a2-3)Gal(b1-3)]Neu5Ac(a2-3)Gal(b1-4)]GlcNAc", "how_it_was_run": "as §1"}, "Neu5Ac(a2-3)Gal(b1-4)Glc": {"biological_target": "Neu5Ac(a2-3)Gal(b1-4)Glc", "how_it_was_run": "as §1"}, "[16]": {"biological_target": "Neu5Ac(a2-3)Gal(b1-4)GlcNAc", "how_it_was_run": "as §1"}, "[17]": {"biological_target": "Neu5Ac(a2-3)Gal(b1-4)GlcNAc(b1-2)Man", "how_it_was_run": "as §1"}, "[18]": {"biological_target": "Neu5Ac(a2-3)Gal(b1-4)GlcNAc(b1-2)Man(a1-3)[GlcNAc(b1-4)][Neu5Ac(a2-3)Gal(b1-4)GlcNAc(b1-2)Man(a1-6)]Man(b1-4)GlcNAc(b1-4)GlcNAc", "how_it_was_run": "as §1"}, "[19]": {"biological_target": "Neu5Ac(a2-3)Gal(b1-4)GlcNAc(b1-2)Man(a1-3)[Neu5Ac(a2-3)Gal(b1-4)GlcNAc(b1-2)Man(a1-6)]Man(b1-4)GlcNAc(b1-4)GlcNAc", "how_it_was_run": "as §1"}, "[20]": {"biological_target": "Neu5Ac(a2-3)Gal(b1-4)GlcNAc(b1-2)Man(a1-3)[Neu5Ac(a2-3)Gal(b1-4)GlcNAc(b1-2)Man(a1-6)]Man(b1-4)GlcNAc(b1-4)[Fuc(a1-6)]GlcNAc", "how_it_was_run": "as §1"}, "[21]": {"biological_target": "Neu5Ac(a2-3)Gal(b1-4)GlcNAc(b1-2)Man(a1-3)[Neu5Ac(a2-6)Gal(b1-4)GlcNAc(b1-2)Man(a1-6)]Man(b1-4)GlcNAc(b1-4)GlcNAc", "how_it_was_run": "as §1"}, "[22]": {"biological_target": "Neu5Ac(a2-3)Gal(b1-4)GlcNAc(b1-2)[Neu5Ac(a2-3)Gal(b1-4)GlcNAc(b1-4)]Man(a1-3)[GlcNAc(b1-4)][Neu5Ac(a2-3)Gal(b1-4)GlcNAc(b1-2)[Neu5Ac(a2-3)Gal(b1-4)GlcNAc(b1-6)]Man(a1-6)]Man(b1-4)GlcNAc(b1-4)GlcNAc", "how_it_was_run": "as §1"}, "[23]": {"biological_target": "Neu5Ac(a2-3)Gal(b1-4)GlcNAc(b1-2)[Neu5Ac(a2-3)Gal(b1-4)GlcNAc(b1-4)]Man(a1-3)[GlcNAc(b1-4)][Neu5Ac(a2-3)Gal(b1-4)GlcNAc(b1-4)Man(a1-6)]Man(b1-4)GlcNAc(b1-4)GlcNAc", "how_it_was_run": "as §1"}, "[24]": {"biological_target": "Neu5Ac(a2-3)Gal(b1-4)GlcNAc(b1-2)[Neu5Ac(a2-3)Gal(b1-4)GlcNAc(b1-6)]Man(a1-6)[Neu5Ac(a2-3)Gal(b1-4)GlcNAc(b1-2)Man(a1-3)]Man(b1-4)GlcNAc(b1-4)GlcNAc", "how_it_was_run": "as §1"}, "[25]": {"biological_target": "Neu5Ac(a2-3)Gal(b1-4)GlcNAc(b1-2)[Neu5Ac(a2-3)Gal(b1-4)GlcNAc(b1-6)]Man(a1-6)[Neu5Ac(a2-3)Gal(b1-4)GlcNAc(b1-2)Man(a1-3)][GlcNAc(b1-4)]Man(b1-4)GlcNAc(b1-4)GlcNAc", "how_it_was_run": "as §1"}, "[26]": {"biological_target": "Neu5Ac(a2-3)Gal(b1-4)GlcNAc(b1-3)Gal", "how_it_was_run": "as §1"}, "[27]": {"biological_target": "Neu5Ac(a2-3)Gal(b1-4)GlcNAc(b1-3)Gal(b1-3)GlcNAc", "how_it_was_run": "as §1"}, "[28]": {"biological_target": "Neu5Ac(a2-3)Gal(b1-4)GlcNAc(b1-3)Gal(b1-4)GlcNAc", "how_it_was_run": "as §1"}, "[29]": {"biological_target": "Neu5Ac(a2-3)Gal(b1-4)GlcNAc(b1-3)Gal(b1-4)GlcNAc(b1-2)Man(a1-3)[Neu5Ac(a2-3)Gal(b1-4)GlcNAc(b1-3)Gal(b1-4)GlcNAc(b1-2)Man(a1-6)]Man(b1-4)GlcNAc(b1-4)GlcNAc", "how_it_was_run": "as §1"}, "[30]": {"biological_target": "Neu5Ac(a2-3)Gal(b1-4)GlcNAc(b1-3)Gal(b1-4)GlcNAc(b1-3)Gal(b1-4)GlcNAc", "how_it_was_run": "as §1"}, "[31]": {"biological_target": "Neu5Ac(a2-3)Gal(b1-4)GlcNAc(b1-3)Gal(b1-4)GlcNAc(b1-3)Gal(b1-4)GlcNAc(b1-2)Man(a1-3)[Neu5Ac(a2-3)Gal(b1-4)GlcNAc(b1-3)Gal(b1-4)GlcNAc(b1-3)Gal(b1-4)GlcNAc(b1-2)Man(a1-6)]GalNAc", "how_it_was_run": "as §1"}, "[32]": {"biological_target": "Neu5Ac(a2-3)Gal(b1-4)GlcNAc(b1-3)Gal(b1-4)GlcNAc(b1-3)GalNAc", "how_it_was_run": "as §1"}, "[33]": {"biological_target": "Neu5Ac(a2-3)Gal(b1-4)GlcNAc(b1-3)Gal(b1-4)GlcNAc(b1-3)[Neu5Ac(a2-3)Gal(b1-4)GlcNAc(b1-3)Gal(b1-4)GlcNAc(b1-6)]GalNAc", "how_it_was_run": "as §1"}, "[34]": {"biological_target": "Neu5Ac(a2-3)Gal(b1-4)GlcNAc(b1-3)Gal(b1-4)GlcNAc(b1-6)[Gal(b1-3)]GalNAc", "how_it_was_run": "as §1"}, "[35]": {"biological_target": "Neu5Ac(a2-3)Gal(b1-4)GlcNAc(b1-3)Gal(b1-4)[Fuc(a1-3)]GlcNAc", "how_it_was_run": "as §1"}, "[36]": {"biological_target": "Neu5Ac(a2-3)Gal(b1-4)GlcNAc(b1-3)GalNAc", "how_it_was_run": "as §1"}, "[37]": {"biological_target": "Neu5Ac(a2-3)Gal(b1-4)GlcNAc(b1-3)[Neu5Ac(a2-3)Gal(b1-4)GlcNAc(b1-6)]GalNAc", "how_it_was_run": "as §1"}}, "note": "Some of the results follow.", "data": [{"binder": "B1", "values": [{"measurement": "glycan array binding signal (z-score)", "setting": "[1]", "value": -0.895}, {"measurement": "glycan array binding signal (z-score)", "setting": "[2]", "value": 0.484}, {"measurement": "glycan array binding signal (z-score)", "setting": "[3]", "value": 0.577}, {"measurement": "glycan array binding signal (z-score)", "setting": "[4]", "value": 0}, {"measurement": "glycan array binding signal (z-score)", "setting": "[5]", "value": -0.413}, {"measurement": "glycan array binding signal (z-score)", "setting": "[6]", "value": -0.057}, {"measurement": "glycan array binding signal (z-score)", "setting": "[7]", "value": 0.365}, {"measurement": "glycan array binding signal (z-score)", "setting": "[8]", "value": -0.62}, {"measurement": "glycan array binding signal (z-score)", "setting": "[9]", "value": -0.955}, {"measurement": "glycan array binding signal (z-score)", "setting": "[10]", "value": -0.537}, {"measurement": "glycan array binding signal (z-score)", "setting": "[11]", "value": -0.202}, {"measurement": "glycan array binding signal (z-score)", "setting": "[12]", "value": 1.17}, {"measurement": "glycan array binding signal (z-score)", "setting": "[13]", "value": -0.491}, {"measurement": "glycan array binding signal (z-score)", "setting": "[14]", "value": -0.503}, {"measurement": "glycan array binding signal (z-score)", "setting": "[15]", "value": 0.006}, {"measurement": "glycan array binding signal (z-score)", "setting": "Neu5Ac(a2-3)Gal(b1-4)Glc", "value": 0.058}, {"measurement": "glycan array binding signal (z-score)", "setting": "[16]", "value": -0.536}, {"measurement": "glycan array binding signal (z-score)", "setting": "[17]", "value": 0.699}, {"measurement": "glycan array binding signal (z-score)", "setting": "[18]", "value": -1.31}, {"measurement": "glycan array binding signal (z-score)", "setting": "[19]", "value": 0.157}, {"measurement": "glycan array binding signal (z-score)", "setting": "[20]", "value": -0.107}, {"measurement": "glycan array binding signal (z-score)", "setting": "[21]", "value": -1.29}, {"measurement": "glycan array binding signal (z-score)", "setting": "[22]", "value": -1.07}, {"measurement": "glycan array binding signal (z-score)", "setting": "[23]", "value": 0.089}, {"measurement": "glycan array binding signal (z-score)", "setting": "[24]", "value": 1}, {"measurement": "glycan array binding signal (z-score)", "setting": "[25]", "value": -0.439}, {"measurement": "glycan array binding signal (z-score)", "setting": "[26]", "value": -0.63}, {"measurement": "glycan array binding signal (z-score)", "setting": "[27]", "value": -0.437}, {"measurement": "glycan array binding signal (z-score)", "setting": "[28]", "value": -0.791}, {"measurement": "glycan array binding signal (z-score)", "setting": "[29]", "value": 1.24}, {"measurement": "glycan array binding signal (z-score)", "setting": "[30]", "value": 0.171}, {"measurement": "glycan array binding signal (z-score)", "setting": "[31]", "value": 1.4}, {"measurement": "glycan array binding signal (z-score)", "setting": "[32]", "value": -1.36}, {"measurement": "glycan array binding signal (z-score)", "setting": "[33]", "value": -0.331}, {"measurement": "glycan array binding signal (z-score)", "setting": "[34]", "value": 0.396}, {"measurement": "glycan array binding signal (z-score)", "setting": "[35]", "value": 0.232}, {"measurement": "glycan array binding signal (z-score)", "setting": "[36]", "value": 0.196}, {"measurement": "glycan array binding signal (z-score)", "setting": "[37]", "value": 2.32}]}]}
